Measurements as given in US10973849B2, “Rhenium complexes and methods of use for treating cancer” (CORNELL UNIVERSITY, priority 2016, dated 2021).

These compounds were tested on human cervical cancer cells (HeLa) (assay: In vitro anticancer activity (MTT) of [Re(CO)3(N—N)(H2O)][OTf] complexes in HeLa cells). Conditions: steepness of the dose-response curve.
Assay type: cell-based
Description: HeLa (cervical cancer) cell line was cultured using Dulbecco's Modified Eagle's Medium (DMEM) supplemented with 10% fetal bovine serum (FBS). A2780 (ovarian cancer) and A2780CP70 (cisplatin-resistant ovarian cancer) cell lines were cultured as monolayers with Roswell Park Memorial Institute (RPMI)-1640 culture media supplemented with 10% fetal bovine serum. All cell lines were grown in a humidified incubator at 37° C. with an atmosphere of 5% CO2. Cells were passed at 80-90% confluence, using trypsin/EDTA. Cells were tested monthly for mycoplasma contamination with the PlasmoTest™ mycoplasma detection kit from InvivoGen.
All compounds were dissolved in phosphate-buffered saline (PBS, pH 7.4) to prepare a 1-2 mM stock solution. For single dose studies, only HeLa cells were used. For both the single dose and full dose response, all cells were grown to 80-90% confluence, detached with trypsin/EDTA, seeded in 96-well plates at 2000 cells/well for HeLa cells and 4000 cells/well for A2780 and A2780CP70 cells in 100 μL of growth media, and incubated for 24 hours. The medium was removed and replaced with fresh medium (200 μL) containing a single concentration of a rhenium(I) complex or media. The cells were then incubated for 4 hours, and then the cells were dosed with 365 nm for 1 hour (one plate under the same dosing conditions was kept outside the incubator in the dark as a control). After exposure to light, the plates incubated for an additional 44 hours, the medium was removed from the wells, and (3(4,5-dimethylthiazol-2-yl)-2,5-tetrazolium bromide (MTT) in RPMI (200 μL, 1 mg/mL) was added. After 4 hours, the MTT/RPMI solution was removed, and the formazan crystals were dissolved in 200 μL of an 8:1 mixture of DMSO and pH 10 glycine buffer. The absorbance at 570 nm in each well was measured using a BioTek Synergy™ HT plate reader. Cell viability was determined by normalizing the absorbance of the treated wells to untreated wells. All compounds that had less than 50% cell viability were analyzed using a full dose response. The % viability data is an average of three independent experiments with six replicates per concentration. The same procedure was followed as above for the full dose response but instead, after 24 hours, varying concentrations of the desired compounds were added. Cell viability was again determined by normalizing the absorbance of the treated wells to untreated wells The concentration of the compound versus % viability was plotted to produce dose-response curves, which were analyzed using a logistic sigmoid function fit with MagicPlot Pro™ software. The reported IC50 values are the average of three independent experiments with six replicates per concentration level.
The in vitro anticancer activities of these complexes were tested in human cervical cancer cells (HeLa), and the results are provided below in Table 1. […] The Hill-Slope is a quantitative measure of the steepness of the dose-response curve.

Row | Compound | Hill Slope
1 | [Re(CO)3(N—N)(H2O)][OTf] [bpy] | 2.0 ± 0.3
2 | [Re(CO)3(N—N)(H2O)][OTf] [4,4′dimethylester bpy] | 9.3 ± 4.6
3 | [Re(CO)3(N—N)(H2O)][OTf] [phen] | 4.8 ± 2.4
4 | [Re(CO)3(N—N)(H2O)][OTf] [4,4′-dimethoxy bpy] | 2.3 ± 0.9
5 | [Re(CO)3(N—N)(H2O)][OTf] [4,7-diphenyl phen] | 0.86 ± 0.13
6 | [Re(CO)3(N—N)(H2O)][OTf] [4,4′-dimethyl bpy] | 2.0 ± 0.8
7 | Cc1ccc2ccc3ccc(C)nc3c2n1.O.O=S(=O)([O-])C(F)(F)F.[C-]#[O+].[C-]#[O+].[C-]#[O+].[Re+] [2,9-dimethyl phen, [Re(CO)3(N—N)(H2O)][OTf]] | 3.3 ± 0.7
8 | N.N.[Cl][Pt][Cl] [cisplatin, reference compound] | 0.87 ± 0.14
